According to paper PMC12513837:
No constants are given. Whether binding was seen depends on the method and setting. In cells and extracts the contact can be indirect. Some entries that bind do so weakly or less than the wild type.

Protein sequences, listed by entry. Tags and fused reporters are not part of them.
UniProt P10275: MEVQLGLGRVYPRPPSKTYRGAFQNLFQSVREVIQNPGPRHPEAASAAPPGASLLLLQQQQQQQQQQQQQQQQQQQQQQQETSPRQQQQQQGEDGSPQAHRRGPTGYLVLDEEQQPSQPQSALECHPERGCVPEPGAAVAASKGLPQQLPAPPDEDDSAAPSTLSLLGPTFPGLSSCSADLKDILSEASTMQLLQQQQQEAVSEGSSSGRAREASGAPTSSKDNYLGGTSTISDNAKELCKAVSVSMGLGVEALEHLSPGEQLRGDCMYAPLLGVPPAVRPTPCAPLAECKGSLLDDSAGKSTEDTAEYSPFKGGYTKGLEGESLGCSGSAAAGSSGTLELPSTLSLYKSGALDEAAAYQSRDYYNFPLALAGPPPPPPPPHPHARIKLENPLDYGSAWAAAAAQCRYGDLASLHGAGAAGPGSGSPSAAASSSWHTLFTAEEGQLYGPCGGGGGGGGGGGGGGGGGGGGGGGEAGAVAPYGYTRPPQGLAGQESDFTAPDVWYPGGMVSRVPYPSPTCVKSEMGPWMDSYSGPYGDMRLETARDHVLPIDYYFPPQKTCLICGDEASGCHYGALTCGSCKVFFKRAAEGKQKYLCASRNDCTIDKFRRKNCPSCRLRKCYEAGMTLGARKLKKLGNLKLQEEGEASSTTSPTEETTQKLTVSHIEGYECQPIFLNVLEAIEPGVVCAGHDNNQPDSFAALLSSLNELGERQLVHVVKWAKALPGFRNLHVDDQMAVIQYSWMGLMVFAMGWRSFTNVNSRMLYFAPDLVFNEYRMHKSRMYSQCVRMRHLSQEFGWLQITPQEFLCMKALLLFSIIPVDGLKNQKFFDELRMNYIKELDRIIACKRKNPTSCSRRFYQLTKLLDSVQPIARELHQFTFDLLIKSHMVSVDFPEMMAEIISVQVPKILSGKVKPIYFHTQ
UniProt O15379: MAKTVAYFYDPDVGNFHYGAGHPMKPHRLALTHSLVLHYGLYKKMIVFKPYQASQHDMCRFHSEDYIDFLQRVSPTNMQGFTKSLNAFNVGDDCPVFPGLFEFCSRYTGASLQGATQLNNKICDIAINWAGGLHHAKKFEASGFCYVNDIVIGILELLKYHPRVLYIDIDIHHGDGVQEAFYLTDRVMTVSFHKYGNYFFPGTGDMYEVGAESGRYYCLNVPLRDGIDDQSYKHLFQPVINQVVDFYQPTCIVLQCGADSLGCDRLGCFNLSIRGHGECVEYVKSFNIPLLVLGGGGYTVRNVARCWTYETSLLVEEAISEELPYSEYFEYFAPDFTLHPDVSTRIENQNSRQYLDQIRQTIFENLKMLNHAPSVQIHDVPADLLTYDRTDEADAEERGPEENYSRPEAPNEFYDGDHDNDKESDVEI

Biological target: androgen receptor (UniProt P10275)
Assay: co-IP; cells lysed in IP lysis buffer with protease inhibitors; 500 µg lysate incubated overnight with 5 µg AR antibody (Abcam) and Protein G Dynabeads; beads washed three times with IP lysis buffer; immunoblot; cells treated with 100 nM CBPD-409 (p300/CBP degrader) compared with control

## histone deacetylase 3 (from UniProt O15379 1-428)
  binding: binds
